PubChem BioAssay AID1259405, NCATS – 2018
This is an unselected part of about 50,000 reagents. Of all reagents, about 4,000 (8%) got an active call. 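Mouse siRNA library applied to hamster cells; one well for each siRNA.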

Purpose: 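Silenced genes that increase secreted GFP made by CHO cells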 (primary screen)
Cell system: Chinese hamster CHO-K1 ovary cells with stable secreted eGFP expression
Reagent: single siRNA against mouse genes, 0.8 pmol siRNA per well (2 µl of 400 nM stock)
Timing: 3 days
Detection: 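Per-well intracellular GFP measured by laser scanning cytometry, plus viability from ATP luminescence, each relative to plate median of non-targeting control wells, in %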
Direction: GFP, % of control: higher = more GFP per well, higher productivity; viability (ATP), % of control: higher = more viable cells (more ATP)
Call rule: 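Called active when intracellular GFP, relative to negative control, is at or above 120%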

Target gene	PubChem SID	GFP, % of control	viability (ATP), % of control	Call
Pou4f1 (POU domain, class 4, transcription factor 1)	SID363573596	92.2	76.1	inactive
Pou4f1 (POU domain, class 4, transcription factor 1)	SID363581340	143	108	active
Pou4f1 (POU domain, class 4, transcription factor 1)	SID363583804	56.2	78	inactive
Olfm2 (olfactomedin 2)	SID363544101	96.1	50.7	inactive
Olfm2 (olfactomedin 2)	SID363550429	93.4	87.4	inactive
Olfm2 (olfactomedin 2)	SID363556978	73.5	88.5	inactive
Ccdc25 (coiled-coil domain containing 25)	SID363543867	142	104	active
Ccdc25 (coiled-coil domain containing 25)	SID363551603	48.2	48.7	inactive
Ccdc25 (coiled-coil domain containing 25)	SID363559208	102	95.3	inactive
Kcnj8 (potassium inwardly-rectifying channel, subfamily J, member 8)	SID363574870	88	94.6	inactive
Kcnj8 (potassium inwardly-rectifying channel, subfamily J, member 8)	SID363575926	116	89.1	inactive
Kcnj8 (potassium inwardly-rectifying channel, subfamily J, member 8)	SID363580502	85.9	90.2	inactive
Dcaf13 (DDB1 and CUL4 associated factor 13)	SID363545983	41.2	41.8	inactive
Dcaf13 (DDB1 and CUL4 associated factor 13)	SID363549496	67.5	81.8	inactive
Dcaf13 (DDB1 and CUL4 associated factor 13)	SID363563302	95.9	101	inactive
Enpp6 (ectonucleotide pyrophosphatase/phosphodiesterase 6)	SID363581754	72.5	96.1	inactive
Enpp6 (ectonucleotide pyrophosphatase/phosphodiesterase 6)	SID363589248	122	107	active
Rbms1 (RNA binding motif, single stranded interacting protein 1)	SID363546033	108	69.8	inactive
Rbms1 (RNA binding motif, single stranded interacting protein 1)	SID363549546	71.4	67.8	inactive
Rbms1 (RNA binding motif, single stranded interacting protein 1)	SID363563352	42.9	65.1	inactive
Or8k3 (olfactory receptor family 8 subfamily K member 3)	SID363554288	67.2	70.2	inactive
Or8k3 (olfactory receptor family 8 subfamily K member 3)	SID363567735	95.6	53	inactive
Or8k3 (olfactory receptor family 8 subfamily K member 3)	SID363585092	97.6	71.7	inactive
Lrrn3 (leucine rich repeat protein 3, neuronal)	SID363544330	119	78.7	inactive
Lrrn3 (leucine rich repeat protein 3, neuronal)	SID363550658	98.7	97.9	inactive
Lrrn3 (leucine rich repeat protein 3, neuronal)	SID363557207	98.6	71.2	inactive
Tmem255a (transmembrane protein 255A)	SID363552287	44.8	77.4	inactive
Tmem255a (transmembrane protein 255A)	SID363585423	83.7	92.9	inactive
Tmem255a (transmembrane protein 255A)	SID363585774	89.4	126	inactive
Ebf2 (early B cell factor 2)	SID363539608	103	85.5	inactive
Ebf2 (early B cell factor 2)	SID363560909	203	130	active
Ebf2 (early B cell factor 2)	SID363564999	91.1	77	inactive
Zbtb9 (zinc finger and BTB domain containing 9)	SID363556832	72.3	66.4	inactive
Zbtb9 (zinc finger and BTB domain containing 9)	SID363563736	66.3	88.4	inactive
Zbtb9 (zinc finger and BTB domain containing 9)	SID363587282	75.1	101	inactive
Slc7a7	SID363574942	79.2	52.6	inactive
Slc7a7	SID363580574	78.1	61.4	inactive
Slc7a7	SID363582686	96.5	87	inactive

A stretch taken from the entries so far:
Target gene	PubChem SID	GFP, % of control	viability (ATP), % of control	Call
Dcaf13 (DDB1 and CUL4 associated factor 13)	SID363549496	67.5	81.8	inactive
Dcaf13 (DDB1 and CUL4 associated factor 13)	SID363563302	95.9	101	inactive
Enpp6 (ectonucleotide pyrophosphatase/phosphodiesterase 6)	SID363581754	72.5	96.1	inactive
Enpp6 (ectonucleotide pyrophosphatase/phosphodiesterase 6)	SID363589248	122	107	active
Rbms1 (RNA binding motif, single stranded interacting protein 1)	SID363546033	108	69.8	inactive
Rbms1 (RNA binding motif, single stranded interacting protein 1)	SID363549546	71.4	67.8	inactive
Rbms1 (RNA binding motif, single stranded interacting protein 1)	SID363563352	42.9	65.1	inactive

Next records follow:
Target gene	PubChem SID	GFP, % of control	viability (ATP), % of control	Call
Satb1 (special AT-rich sequence binding protein 1)	SID363573538	85.4	62	inactive
Satb1 (special AT-rich sequence binding protein 1)	SID363581282	92.7	71	inactive
Satb1 (special AT-rich sequence binding protein 1)	SID363583746	70.9	73.3	inactive
Rps11 (ribosomal protein S11)	SID363554044	46.6	24.6	inactive
Rps11 (ribosomal protein S11)	SID363562001	107	92.8	inactive
Rps11 (ribosomal protein S11)	SID363565739	87.8	63.4	inactive
Heatr3 (HEAT repeat containing 3)	SID363547150	38	68.1	inactive
Heatr3 (HEAT repeat containing 3)	SID363549962	73.8	74.7	inactive
Heatr3 (HEAT repeat containing 3)	SID363588016	153	129	active
Ces1f (carboxylesterase 1F)	SID363545751	65.8	69.1	inactive
Ces1f (carboxylesterase 1F)	SID363549264	70.2	81.7	inactive
Ces1f (carboxylesterase 1F)	SID363563070	74.7	62	inactive
Slc2a2	SID363574906	67.5	81.6	inactive
Slc2a2	SID363575962	49.5	74.9	inactive
Slc2a2	SID363580538	102	83	inactive
Bpifa2 (BPI fold containing family A, member 2)	SID363555074	85.2	79.5	inactive
Bpifa2 (BPI fold containing family A, member 2)	SID363568521	47.6	66.9	inactive
Bpifa2 (BPI fold containing family A, member 2)	SID363586580	97.5	103	inactive
Fig4 (FIG4 phosphoinositide 5-phosphatase)	SID363547858	62.8	57.1	inactive
Fig4 (FIG4 phosphoinositide 5-phosphatase)	SID363558627	77.1	58.4	inactive
Fig4 (FIG4 phosphoinositide 5-phosphatase)	SID363560385	68.3	104	inactive
Il2rb (interleukin 2 receptor, beta chain)	SID363568703	102	102	inactive
Il2rb (interleukin 2 receptor, beta chain)	SID363576095	87.5	77	inactive
Il2rb (interleukin 2 receptor, beta chain)	SID363578911	101	66.6	inactive
Zgpat (zinc finger, CCCH-type with G patch domain)	SID363546910	84.9	70.1	inactive
Zgpat (zinc finger, CCCH-type with G patch domain)	SID363549722	62.2	62.5	inactive
Zgpat (zinc finger, CCCH-type with G patch domain)	SID363587776	172	148	active
Slc30a3	SID363574899	82.9	69.8	inactive
Slc30a3	SID363575955	49.2	75.3	inactive
Slc30a3	SID363580531	66.5	46.4	inactive
Cpt1c (carnitine palmitoyltransferase 1c)	SID363570507	91.6	77.2	inactive
Cpt1c (carnitine palmitoyltransferase 1c)	SID363579307	65.6	155	inactive
Cpt1c (carnitine palmitoyltransferase 1c)	SID363583179	124	94.2	active
Lypd6b (LY6/PLAUR domain containing 6B)	SID363543335	103	87	inactive
Lypd6b (LY6/PLAUR domain containing 6B)	SID363552828	67	75.8	inactive
Lypd6b (LY6/PLAUR domain containing 6B)	SID363558676	84.2	58.9	inactive
Or5b106 (olfactory receptor family 5 subfamily B member 106)	SID363544619	86.9	69.2	inactive
Or5b106 (olfactory receptor family 5 subfamily B member 106)	SID363550947	76.2	98.4	inactive
Or5b106 (olfactory receptor family 5 subfamily B member 106)	SID363557496	55.1	76.5	inactive
Or4p8 (olfactory receptor family 4 subfamily P member 8)	SID363554407	84.7	60	inactive
Or4p8 (olfactory receptor family 4 subfamily P member 8)	SID363567854	41.4	88.7	inactive
Or4p8 (olfactory receptor family 4 subfamily P member 8)	SID363585211	40.7	92.3	inactive
Prl8a6 (prolactin family 8, subfamily a, member 6)	SID363541857	51.7	81.8	inactive
Prl8a6 (prolactin family 8, subfamily a, member 6)	SID363553449	67.6	56.3	inactive
Prl8a6 (prolactin family 8, subfamily a, member 6)	SID363566773	66.1	73.8	inactive
Zfp12 (zinc finger protein 12)	SID363555317	85.2	58.9	inactive
Zfp12 (zinc finger protein 12)	SID363563978	50.9	71.7	inactive
Zfp12 (zinc finger protein 12)	SID363587524	79.1	92.2	inactive
Zscan26 (zinc finger and SCAN domain containing 26)	SID363541165	72.4	52.3	inactive
Zscan26 (zinc finger and SCAN domain containing 26)	SID363555792	71.7	87.1	inactive
Zscan26 (zinc finger and SCAN domain containing 26)	SID363566081	48.4	62.5	inactive
Pip4p1 (phosphatidylinositol-4,5-bisphosphate 4-phosphatase 1)	SID363556222	95.9	85.2	inactive
Pip4p1 (phosphatidylinositol-4,5-bisphosphate 4-phosphatase 1)	SID363586672	112	108	inactive
Pip4p1 (phosphatidylinositol-4,5-bisphosphate 4-phosphatase 1)	SID363588780	188	175	active
Sms (spermine synthase)	SID363570442	68.8	71.9	inactive
Sms (spermine synthase)	SID363579242	121	136	active
Sms (spermine synthase)	SID363583114	103	97.4	inactive
Or5v1b (olfactory receptor family 5 subfamily V member 1B)	SID363544514	68.5	47.1	inactive
Or5v1b (olfactory receptor family 5 subfamily V member 1B)	SID363550842	79.1	97.5	inactive
Or5v1b (olfactory receptor family 5 subfamily V member 1B)	SID363557391	81.2	75.6	inactive
Fam174a (family with sequence similarity 174, member A)	SID363543665	43.2	23.7	inactive
Fam174a (family with sequence similarity 174, member A)	SID363553158	49.8	54.9	inactive
Fam174a (family with sequence similarity 174, member A)	SID363559006	82.6	82.2	inactive
Tceal8 (transcription elongation factor A (SII)-like 8)	SID363555259	126	115	active
Tceal8 (transcription elongation factor A (SII)-like 8)	SID363563920	67.3	69.9	inactive
Tceal8 (transcription elongation factor A (SII)-like 8)	SID363587466	58.7	96.7	inactive
Tmie (transmembrane inner ear)	SID363556213	96.9	67.4	inactive
Tmie (transmembrane inner ear)	SID363586663	85.3	78	inactive
Tmie (transmembrane inner ear)	SID363588771	155	126	active
